This note sets out measurements from patent US10941139B2 (priority 2015, dated 2021).

Where “and” joins values, the source holds several entries; their conditions need not be identical. Equal entries are not always repeated.

A short description of the first data set: general procedure: solution-phase peptide synthesis; HATU/HOAt/DIEA; EDC/HOBt. The settings on record: coupling step.
“(6R,13S)-(1E,3R,4S,6E)-1-(4-(azidomethyl)phenyl)-8-(tert-butoxy)-3-methyl-8-oxoocta-1,6-dien-4-yl 6-(3-chloro-4-methoxybenzyl)-13-isobutyl-2,2,10,10-tetramethyl-4,7,11-trioxo-3-oxa-5,8,12-triazatetradecan-14-oate”: the step yield is listed as 57%.

In turn, “(6R,13S)-(1E,3R,4S,6E)-8-(tert-butoxy)-1-(4-(hydroxymethyl)phenyl)-3-methyl-8-oxoocta-1,6-dien-4-yl 6-(3-chloro-4-methoxybenzyl)-2,2,9,10,10-pentamethyl-13-neopentyl-4,7,11-trioxo-3-oxa-5,8,12-triazatetradecan-14-oate” yielded a step yield of 30%.

In the case of “(6R,13S)-(1E,3R,4S,6E)-8-(tert-butoxy)-1-(4-(hydroxymethyl)phenyl)-3-methyl-8-oxoocta-1,6-dien-4-yl 6-(3-chloro-4-methoxybenzyl)-2,2,10,10-tetramethyl-13-neopentyl-4,7,11-trioxo-3-oxa-5,8,12-triazatetradecan-14-oate”, the step yield stood at 57%.

Staying with this data set, now noted: cyclisation step.
“(3S,10R,16S, E)-10-(3-chloro-4-methoxybenzyl)-16-((R,E)-4-(4-(hydroxymethyl)-phenyl)but-3-en-2-yl)-6,6,7-trimethyl-3-neopentyl-1-oxa-4,8,11-triazacyclohexadec-13-ene-2,5,9,12-tetraone” displayed a cyclisation yield of 54%.

The substance “(3S,10R,16S, E)-10-(3-chloro-4-methoxybenzyl)-16-((R,E)-4-(4-(hydroxymethyl)-phenyl)but-3-en-2-yl)-6,6-dimethyl-3-neopentyl-1-oxa-4,8,11-triazacyclohexadec-13-ene-2,5,9,12-tetraone” showed a cyclisation yield of 70%.

The substance “(3S,10R,16S,E)-16-((R,E)-4-(4-(azidomethyl)phenyl)but-3-en-2-yl)-10-(3-chloro-4-methoxybenzyl)-3-isobutyl-6,6-dimethyl-1-oxa-4,8,11-triazacyclohexadec-13-ene-2,5,9,12-tetraone” displayed a cyclisation yield of 68%.

The data set is the same for the next values; noted with them: cyclisation step; run 1.
With “(3S,7S,10R,16S, E)-10-(3-chloro-4-methoxybenzyl)-16-((R)-1-((4-methoxy-benzyl)oxy)propan-2-yl)-6,6,7-trimethyl-3-neopentyl-1-oxa-4,8,11-triazacyclohexadec-13-ene-2,5,9,12-tetraone”, the cyclisation yield was 61% and 37%.

“(3S,10R,16S, E)-16-((R,E)-4-(4-(azidomethyl)phenyl)but-3-en-2-yl)-10-(3-chloro-4-methoxybenzyl)-3-isobutyl-6,6,7-trimethyl-1-oxa-4,8,11-triazacyclohexadec-13-ene-2,5,9,12-tetraone [44]” displayed a cyclisation yield of 17%.

Substance “(3S,10R,16S, E)-16-((R,E)-4-(4-(azidomethyl)phenyl)but-3-en-2-yl)-10-(3-chloro-4-methoxybenzyl)-3-isobutyl-6,6,7-trimethyl-1-oxa-4,8,11-triazacyclohexadec-13-ene-2,5,9,12-tetraone [45]” returned a cyclisation yield of 19%.

The substance “(3S,10R,16S,E)-10-(3-chloro-4-methoxybenzyl)-6-(hydroxymethyl)-16-((R)-1-((4-methoxybenzyl)oxy)propan-2-yl)-6-methyl-3-neopentyl-1-oxa-4,8,11-triazacyclohexadec-13-ene-2,5,9,12-tetraone [76 stereomer 1]” showed a cyclisation yield of 56%.

Consider “(3S,10R,16S,E)-10-(3-chloro-4-methoxybenzyl)-6-(hydroxymethyl)-16-((R)-1-((4-methoxybenzyl)oxy)propan-2-yl)-6-methyl-3-neopentyl-1-oxa-4,8,11-triazacyclohexadec-13-ene-2,5,9,12-tetraone [76 stereomer 2]”, for which the cyclisation yield is given as 37%.

Still in this data set, the particulars now being: late stage modification step.
The substance “2,5-dioxopyrrolidin-1-yl (9S,12S)-1-(4-((2R,3R)-3-((S)-1-((3S,7S,10R,16S,E)-10-(3-chloro-4-methoxybenzyl)-6,6,7-trimethyl-3-neopentyl-2,5,9,12-tetraoxo-1-oxa-4,8,11-triazacyclo-hexadec-13-en-16-yl)ethyl)oxiran-2-yl)phenyl)-12-isopropyl-9-methyl-3,8,11,14-tetraoxo-2-oxa-4,7,10,13-tetraaza” returned a step yield of 72%.

The substance “3-((1-(4-((2R,3R)-3-((S)-1-((3S,7S,10R,16S, E)-10-(3-chloro-4-methoxybenzyl)-6,6,7-trimethyl-3-neopentyl-2,5,9,12-tetraoxo-1-oxa-4,8,11-triazacyclohexadec-13-en-16-yl)ethyl)oxiran-2-yl)benzyl)-1H-1,2,3-triazol-4-yl)methoxy)propanoic Acid” registered a step yield of 35%.

Substance “4-((2R,3R)-3-((S)-1-((3S,7S,10R,16S,E)-10-(3-chloro-4-methoxybenzyl)-6,6,7-trimethyl-3-neopentyl-2,5,9,12-tetraoxo-1-oxa-4,8,11-triazacyclohexadec-13-en-16-yl)ethyl)oxiran-2-yl)benzyl (4-nitrophenyl) carbonate” gave a step yield of 94%.

Turning to “(2E,5S,6R,7E)-5-(((S)-2-(3-((R)-2-amino-3-(3-chloro-4-methoxyphenyl)-propanamido)-2,2-dimethylpropanamido)-4,4-dimethylpentanoyl)oxy)-8-(4-(hydroxymethyl)-phenyl)-6-methylocta-2,7-dienoic acid”, the step yield stood at 82%.

As to “(3S,7S,10R,16S,E)-10-(3-chloro-4-methoxybenzyl)-6,6,7-trimethyl-3-neopentyl-16-((S)-1-((2R,3R)-3-(4-(((triisopropylsilyl)oxy)methyl)phenyl)oxiran-2-yl)ethyl)-1-oxa-4,8,11-triazacyclohexadec-13-ene-2,5,9,12-tetraone”, the step yield is 30%.

For “(3S,7S,10R,16S,E)-10-(3-chloro-4-methoxybenzyl)-16-((R)-1-hydroxypropan-2-yl)-6,6,7-trimethyl-3-neopentyl-1-oxa-4,8,11-triazacyclohexadec-13-ene-2,5,9,12-tetraone”, the step yield is 67%.

“(3S,10R,16S,E)-10-(3-chloro-4-methoxybenzyl)-16-((S)-1-((2R,3R)-3-(4-(hydroxy-methyl)phenyl)oxiran-2-yl)ethyl)-6,6-dimethyl-3-neopentyl-1-oxa-4,8,11-triazacyclohexadec-13-ene-2,5,9,12-tetraone” had a step yield of 31%.

For the substance “(3S,10R,16S,E)-10-(3-chloro-4-methoxybenzyl)-16-((S)-1-((2R,3R)-3-(4-(hydroxymethyl)phenyl)oxiran-2-yl)ethyl)-6,6,7-trimethyl-3-neopentyl-1-oxa-4,8,11-triazacyclohexadec-13-ene-2,5,9,12-tetraone”, the step yield amounted to 45%.

With “(3S,10R,16S,E)-16-((S)-1-((2R,3R)-3-(4-(aminomethyl)phenyl)oxiran-2-yl)ethyl)-10-(3-chloro-4-methoxybenzyl)-3-isobutyl-6,6-dimethyl-1-oxa-4,8,11-triazacyclohexadec-13-ene-2,5,9,12-tetraone”, the step yield amounted to 51%.

Take “(3S,10R,16S,E)-16-((S)-1-((2R,3R)-3-(4-(aminomethyl)phenyl)oxiran-2-yl)ethyl)-10-(3-chloro-4-methoxybenzyl)-6,6,7-trimethyl-3-neopentyl-1-oxa-4,8,11-triazacyclohexadec-13-ene-2,5,9,12-tetraone”: the step yield was 68%.

As to “(3S,10R,16S,E)-16-((S)-1-((2R,3R)-3-(4-(aminomethyl)phenyl)oxiran-2-yl)ethyl)-10-(3-chloro-4-methoxybenzyl)-6,6-dimethyl-3-neopentyl-1-oxa-4,8,11-triazacyclohexadec-13-ene-2,5,9,12-tetraone”, the step yield stood at 84%.

As for “(3S,10R,16S,E)-16-((S)-1-((2R,3R)-3-(4-(azidomethyl)phenyl)oxiran-2-yl)ethyl)-10-(3-chloro-4-methoxybenzyl)-6,6,7-trimethyl-3-neopentyl-1-oxa-4,8,11-triazacyclohexadec-13-ene-2,5,9,12-tetraone”, the step yield is listed as 94%.

“(3S,10R,16S,E)-16-((S)-1-((2R,3R)-3-(4-(azidomethyl)phenyl)oxiran-2-yl)ethyl)-10-(3-chloro-4-methoxybenzyl)-6,6-dimethyl-3-neopentyl-1-oxa-4,8,11-triazacyclohexadec-13-ene-2,5,9,12-tetraone” returned a step yield of 40%.

“(3S,10R,16S,E)-16-((S)-1-((2R,3R)-3-(4-(azidomethyl)phenyl)oxiran-2-yl)ethyl)-10-(3-chloro-4-methoxybenzyl)-6-methyl-3-neopentyl-6-(((triethylsilyl)oxy)methyl)-1-oxa-4,8,11-triazacyclohexadec-13-ene-2,5,9,12-tetraone” came in with a step yield of 24%.

The substance “(6R,13S)-(1E,3R,4S,6E)-1-(4-(azidomethyl)phenyl)-8-(tert-butoxy)-3-methyl-8-oxoocta-1,6-dien-4-yl 6-(3-chloro-4-methoxybenzyl)-13-isobutyl-2,2,10,10-tetramethyl-4,7,11-trioxo-3-oxa-5,8,12-triazatetradecan-14-oate” registered a step yield of 50%.

In the case of “(9S,12S)-1-(4-((2R,3R)-3-((S)-1-((3S,7S,10R,16S, E)-10-(3-chloro-4-methoxy-benzyl)- 6,6,7-trimethyl-3-neopentyl-2,5,9,12-tetraoxo-1-oxa-4,8,11-triazacyclohexadec-13-en-16-yl)ethyl)oxiran-2-yl)phenyl)-12-isopropyl-9-methyl-3,8,11,14-tetraoxo-2-oxa-4,7,10,13-tetraazaoctadecan-18-oic acid”, the step yield turned out to be 56%.

The data set is the same for the next values; noted with them: late stage modification step; run 1.
“(3S,10R,16S, E)-16-((S)-1-((2R,3R)-3-(4-(azidomethyl)phenyl)oxiran-2-yl)ethyl)-10-(3-chloro-4-methoxybenzyl)-3-isobutyl-6,6-dimethyl-1-oxa-4,8,11-triazacyclohexadec-13-ene-2,5,9,12-tetraone” returned a step yield of 44%.

As for “(3S,10R,16S,E)-10-(3-chloro-4-methoxybenzyl)-16-((R)-1-((4-methoxy-benzyl)oxy)propan-2-yl)-6-methyl-3-neopentyl-6-(((triethylsilyl)oxy)methyl)-1-oxa-4,8,11-triaza-cyclohexadec-13-ene-2,5,9,12-tetraone [77 stereomer 1]”, the step yield is listed as 39%.

As for “(3S,10R,16S,E)-10-(3-chloro-4-methoxybenzyl)-16-((R)-1-((4-methoxy-benzyl)oxy)propan-2-yl)-6-methyl-3-neopentyl-6-(((triethylsilyl)oxy)methyl)-1-oxa-4,8,11-triaza-cyclohexadec-13-ene-2,5,9,12-tetraone [77 stereomer 2]”, the step yield came out at 30%.

Staying with this data set, now noted: late stage modification step; run 2.
The substance “(3S,10R,16S, E)-16-((S)-1-((2R,3R)-3-(4-(azidomethyl)phenyl)oxiran-2-yl)ethyl)-10-(3-chloro-4-methoxybenzyl)-3-isobutyl-6,6-dimethyl-1-oxa-4,8,11-triazacyclohexadec-13-ene-2,5,9,12-tetraone” gave a step yield of 57%.
